The values that follow come from PMC4631508.

No constants are given. Whether binding was seen depends on the method and setting. In cells and extracts the contact can be indirect.

In this assay the target is GFP-Exo84 (Drosophila). The assay can be described thus: co-IP; protein extracts from Drosophila testes expressing GFP- or YFP-tagged proteins; precipitated with GFP-trap beads (ChromoTek), immunoblotted.

B1: Rab11 (protein, UniProt O18335 1-214)
chain: MGAREDEYDYLFKVVLIGDSGVGKSNLLSRFTRNEFNLESKSTIGVEFATRSIEVDGKTIKAQIWDTAGQERYRAITSAYYRGAVGALLVYDIAKHLTYENVERWLRELRDHADQNIVIMLVGNKSDLRHLRSVPTDEAKLFAERNGLSFIETSALDSTNVETAFQNILTEIYRIVSQKQIRDPPEGDVIRPSNVEPIDVKPTVTADVRKQCCQ
With B1, the binding result is listed as “no binding”.
